Measured values: PubChem BioAssay AID2685 (National Center for Advancing Translational Sciences (NCATS), 2010)
This is one part of the list. Shown are side measurements of this screen, not its main read-out; they come without a call. Most of these compounds were active or inconclusive in the main read-out, so they are no random draw. The note in brackets gives the kind of curve behind each potency; many fits are weak.

Test: qHTS Assay for Lipid Storage Modulators in Drosophila S3 Cells;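 for cell number change: cells counted by Cell Tracker Red CMTPX staining in the red channel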
Conditions: BODIPY lipid droplet fluorescence, 18-24 h; for cell number change: measured here: cell count max response, cells fed with added oleic acid
In short: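 Drosophila S3 cells loaded with oleic acid (400 uM, as added) and compounds at several concentrations; lipid droplets imaged by 488-nm laser-scanning cytometry, 500–530 nm intensity and object ratio to cell channel. Percent activity normalized to 20 uM Triacsin C.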

[1] = measured here: lipid fluorescence (Fed channel) AC50, cells fed with added oleic acid
[2] = measured here: cell number channel AC50, cells fed with added oleic acid

SMILES | cell number change | AC50 [1] | AC50 [2]
COc1ccc(C)cc1NS(=O)(=O)c1ccc(NC(=O)CN(c2cc([N+](=O)[O-])ccc2C)S(C)(=O)=O)cc1 | -18.4% | 23.1 µM [falling, single point] | –
Cc1ccc(C(O)c2ccc(-n3ccnc3)cc2)cc1 (configuration not stated) | 9.24% | 0.731 µM [rising, partial curve] | –
COc1ccc(C(=O)NNC(=O)CN2CCC(n3nnc4cc(F)ccc43)CC2)cc1 | 4.41% | 10.3 µM [rising, partial curve, poor fit] | –
CC(=O)N1CCCc2cc(S(=O)(=O)N3CCCC(C(=O)NCc4ccccc4)C3)ccc21 (configuration not stated) | -14.4% | – | 0.092 µM [falling, full curve, poor fit]
CC(=O)N1CCN(S(=O)(=O)c2cccc(C(=O)Nc3ccc4c(c3)CCC4)c2)CC1 | -15% | 13 µM [falling, partial curve, poor fit] | –
Cc1cc(OCC(=O)NCc2ccccn2)c2c(C)c(Cc3ccccc3)c(=O)oc2c1 | -20.6% | 1.84 µM [falling, partial curve] | –
CC(=O)Nc1ccc(S(=O)(=O)Nc2nc3ccccc3s2)cc1 | – | 18.4 µM [falling, partial curve] | –
COc1cccc(NC(=O)c2nc(S(C)(=O)=O)ncc2Cl)c1 | -4.44% | 0.92 µM [falling, full curve] | 4.11 µM [falling, single point]
CC(=O)N1[C@H](Cc2ccccc2)C=C[C@]1(C)C(=O)NCCN1CCOCC1 | 17.1% | – | –
CCc1ccc(-c2cc(C)no2)cc1S(=O)(=O)Nc1ccc(Cl)cn1 | 9.73% | 6.51 µM [falling, single point] | –
Cn1c(COc2ccc(Cl)cc2)nnc1SCc1ncc(-c2ccccc2)o1 | -32.2% | 20.6 µM [falling, partial curve, poor fit] | 13 µM [falling, partial curve]
